{"source": "paper doi:10.1101/2024.10.21.619555", "binders": {"B1": {"name": "proline-rich protein 4 (PRR4) (protein, UniProt Q16378 17-134)", "chain": "QSTDNDVNYEDFTFTIPDVEDSSQRPDQGPQRPPPEGLLPRPPGDSGNQDDGPQQRPPKPGGHHRHPPPPPFQNQQRPPRRGHRQLSLPRFPSVSLQEASSFFQRDRPARHPQEQPLW"}, "B2": {"name": "lacritin (LACRT) (protein, UniProt Q9GZZ8 20-138)", "chain": "EDASSDSTGADPAQEAGTSKPNEEISGPAEPASPPETTTTAQETSAAAVQGTAKVTSSRQELNPLKSIVEKSILLTEQALAKAGKGMHGGVPGGKQFIENGSEFAQKLLKKFSLLKPWA"}}, "molecular_target": "TurboID-DR6 (UniProt O75509)", "assay": "proximity labelling", "note": "Results are given in words; binding and its absence hold for the method and conditions named. Binding seen in cells or lysates may run through a third protein. Here binding means that the protein was enriched with, or labelled near, the bait; the list need not be complete.", "data": [{"binder": "B1", "values": [{"measurement": "binding", "value": "binds"}]}, {"binder": "B2", "values": [{"measurement": "binding", "value": "binds"}]}]}
